The target in this assay is SMARCE1 (human (endogenous in HS-SY-II and Yamato)) (UniProt Q969G3). Nature of the assay: co-IP; anti-BAF57/SMARCE1 antibody (5 ug) with Protein A Sepharose on 500 ug nuclear lysate of HS-SY-II and Yamato cells transfected with 6His-SUMO2; untreated or 100 nM TAK-981 for 36 h; Pierce IP lysis buffer with NEM; 4 C overnight; normal rabbit IgG as control.

Sequences of proteins named here, by UniProt entry; tags and fusion partners are left off.
UniProt Q969G3: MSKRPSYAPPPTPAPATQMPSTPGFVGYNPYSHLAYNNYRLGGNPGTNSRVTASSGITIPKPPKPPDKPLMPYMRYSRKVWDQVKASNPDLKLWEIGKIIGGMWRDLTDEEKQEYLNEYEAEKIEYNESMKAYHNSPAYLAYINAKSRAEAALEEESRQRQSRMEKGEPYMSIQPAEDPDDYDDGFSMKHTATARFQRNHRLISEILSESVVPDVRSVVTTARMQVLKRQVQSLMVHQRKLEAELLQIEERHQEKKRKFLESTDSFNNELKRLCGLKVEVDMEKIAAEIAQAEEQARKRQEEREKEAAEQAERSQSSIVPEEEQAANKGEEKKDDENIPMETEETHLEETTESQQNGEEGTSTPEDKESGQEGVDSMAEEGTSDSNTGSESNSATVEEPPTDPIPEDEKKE
UniProt Q86U86: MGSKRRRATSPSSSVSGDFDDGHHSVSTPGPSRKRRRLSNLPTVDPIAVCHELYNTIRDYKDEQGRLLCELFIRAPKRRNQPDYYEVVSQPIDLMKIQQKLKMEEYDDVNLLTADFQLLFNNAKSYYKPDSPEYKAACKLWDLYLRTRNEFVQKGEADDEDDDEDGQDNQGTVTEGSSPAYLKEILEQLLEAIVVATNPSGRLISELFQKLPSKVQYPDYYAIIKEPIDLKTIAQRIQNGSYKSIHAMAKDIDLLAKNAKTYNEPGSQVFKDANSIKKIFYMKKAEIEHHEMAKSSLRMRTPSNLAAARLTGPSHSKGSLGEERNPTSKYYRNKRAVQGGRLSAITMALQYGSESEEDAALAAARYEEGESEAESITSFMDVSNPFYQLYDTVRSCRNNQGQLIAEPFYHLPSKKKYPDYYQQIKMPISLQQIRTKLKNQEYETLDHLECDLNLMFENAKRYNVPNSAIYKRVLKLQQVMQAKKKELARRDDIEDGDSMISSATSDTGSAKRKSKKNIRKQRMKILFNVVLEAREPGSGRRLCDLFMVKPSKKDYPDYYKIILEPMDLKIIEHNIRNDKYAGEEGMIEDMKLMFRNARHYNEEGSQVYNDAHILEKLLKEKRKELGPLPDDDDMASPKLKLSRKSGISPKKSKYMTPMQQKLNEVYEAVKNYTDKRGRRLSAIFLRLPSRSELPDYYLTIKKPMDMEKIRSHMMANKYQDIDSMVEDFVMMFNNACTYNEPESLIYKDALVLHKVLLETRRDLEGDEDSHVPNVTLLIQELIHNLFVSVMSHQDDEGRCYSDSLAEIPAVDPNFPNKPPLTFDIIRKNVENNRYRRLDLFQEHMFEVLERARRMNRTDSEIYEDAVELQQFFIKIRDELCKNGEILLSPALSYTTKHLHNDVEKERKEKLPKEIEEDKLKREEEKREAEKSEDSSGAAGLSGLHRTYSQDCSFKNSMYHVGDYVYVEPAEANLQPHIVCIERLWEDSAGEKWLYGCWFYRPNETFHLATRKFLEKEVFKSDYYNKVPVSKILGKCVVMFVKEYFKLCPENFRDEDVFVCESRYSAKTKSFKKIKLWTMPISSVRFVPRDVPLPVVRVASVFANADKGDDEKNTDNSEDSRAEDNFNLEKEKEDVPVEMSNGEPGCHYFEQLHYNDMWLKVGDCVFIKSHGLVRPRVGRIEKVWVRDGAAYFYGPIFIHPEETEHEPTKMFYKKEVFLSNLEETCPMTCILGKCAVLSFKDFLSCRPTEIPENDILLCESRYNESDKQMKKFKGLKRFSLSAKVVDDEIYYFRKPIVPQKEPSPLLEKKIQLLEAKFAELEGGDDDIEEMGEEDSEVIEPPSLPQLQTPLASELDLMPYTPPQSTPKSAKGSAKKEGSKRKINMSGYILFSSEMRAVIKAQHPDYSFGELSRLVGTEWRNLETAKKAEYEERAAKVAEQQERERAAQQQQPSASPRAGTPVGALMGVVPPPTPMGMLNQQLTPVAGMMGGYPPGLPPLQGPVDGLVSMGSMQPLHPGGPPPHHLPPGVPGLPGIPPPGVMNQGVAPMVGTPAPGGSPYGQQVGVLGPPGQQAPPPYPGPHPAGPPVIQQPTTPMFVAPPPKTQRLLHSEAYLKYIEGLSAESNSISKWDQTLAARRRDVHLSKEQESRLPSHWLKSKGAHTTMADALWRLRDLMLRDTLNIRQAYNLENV
UniProt Q12824: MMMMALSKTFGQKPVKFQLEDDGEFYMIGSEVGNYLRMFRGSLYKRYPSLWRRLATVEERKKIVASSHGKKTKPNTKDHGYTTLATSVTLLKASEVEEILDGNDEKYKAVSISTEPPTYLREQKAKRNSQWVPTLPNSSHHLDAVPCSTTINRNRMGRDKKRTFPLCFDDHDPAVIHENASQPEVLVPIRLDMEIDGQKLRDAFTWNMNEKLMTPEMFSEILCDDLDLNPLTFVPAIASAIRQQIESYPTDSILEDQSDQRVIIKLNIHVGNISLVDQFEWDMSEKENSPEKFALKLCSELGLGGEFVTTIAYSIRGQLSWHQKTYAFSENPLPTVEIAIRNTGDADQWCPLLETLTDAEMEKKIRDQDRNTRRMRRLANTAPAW

Results are given in words; binding and its absence hold for the method and conditions named. Binding seen in cells or lysates may run through a third protein. Some results given as binding are weak or reduced against the parent protein; the word gives no strength.

In the case of PBRM1 (from UniProt Q86U86 1-1689), the binding entry is “binds”.

Consider “SMARCB1 (BAF47) (from UniProt Q12824 1-385)”, for which the binding result is reported as “binds”.

For the origin of these results see article PMC12589557.
